Among the data in PMC7819943, “Rice protein-binding microarrays: a tool to detect cis-acting elements near promoter regions in rice” are binding signal values, retold here.

The list shows a part of the results.

This assay has as its target T1, OsSMF1 (Oryza sativa, UniProt Q6ZLB0 1-436).
T1 sequence: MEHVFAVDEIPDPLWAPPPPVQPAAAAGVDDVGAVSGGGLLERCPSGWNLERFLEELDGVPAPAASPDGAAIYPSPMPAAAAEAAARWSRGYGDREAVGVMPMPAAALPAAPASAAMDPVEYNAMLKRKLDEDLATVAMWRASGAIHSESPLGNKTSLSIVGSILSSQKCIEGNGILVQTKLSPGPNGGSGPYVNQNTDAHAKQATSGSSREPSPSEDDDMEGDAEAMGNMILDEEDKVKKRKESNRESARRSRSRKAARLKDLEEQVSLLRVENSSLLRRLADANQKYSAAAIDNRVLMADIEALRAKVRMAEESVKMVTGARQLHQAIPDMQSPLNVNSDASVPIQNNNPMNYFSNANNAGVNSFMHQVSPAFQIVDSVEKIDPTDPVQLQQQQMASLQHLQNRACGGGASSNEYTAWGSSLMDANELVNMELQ
Description: protein-binding microarray (RPBM); PBS, 2% BSA, 51.3 ng/ul salmon testes DNA, 50 uM zinc acetate, 200 nM TF, 25 C, 1 h; high values mean tight binding. The note with it: protein: recombinant; tags: N-terminal polyhistidine and DsRed monomer fusion (pET32a); chain copies: 2; label: CyDye5-dUTP incorporated in the synthesized complementary strand; 3' TTTTT single-stranded linker to array surface; dsDNA, one strand shown. The essentials:
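Using Ni–NTA, transcription factors fused N-terminally to polyhistidine and DsRed were purified after expression in E. coli BL21-CodonPlus. These were incubated at 200 nM with a blocked, double-stranded custom Agilent array for 1 h at 25 °C in a buffer containing 50 µM zinc acetate, and the array was washed. The binding signal is per-feature fluorescence intensity (arbitrary units) on an Axon 4000B scanner.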
“ACTAGCGCCGACGCGGAACTTACGGCTTGGATTTGGGACTCGGAGTCACCTAGTGCAG”: the binding signal was 3500 fluorescence intensity (a.u.). To “ACAGGTGGGCCCCACAGTGACGTCACAGGAAGCTGACCCACGGAGTCACCTAGTGCAG” belongs 5670 fluorescence intensity (a.u.); to “AGTATATATGACACATCTCGAGTTAACCCTTAAAATTTCCCGGAGTCACCTAGTGCAG”, 3240 fluorescence intensity (a.u.); to “CCTTCCAGCAATAAATCACCCTAGGGAAGAACGATTTATCCGGAGTCACCTAGTGCAG”, 4220 fluorescence intensity (a.u.).

On to “TCGGCTCCCCATCGCCGCCGCGGAACAATCGCATCGCTACCGGAGTCACCTAGTGCAG”, for which the binding signal was 29400 fluorescence intensity (a.u.). As to “ACTTGCACAGCTCAGCGGAAGGCTGCGTAGTCATCTCGTTCGGAGTCACCTAGTGCAG”, the binding signal is 4650 fluorescence intensity (a.u.). “TCGTCCTTTCTCTCATGTCGTCATCCTCATCGACTCATCACGGAGTCACCTAGTGCAG”: the binding signal was 5630 fluorescence intensity (a.u.).

As to “CGCGTGCGTGTGGCGGCCGCCGCCACGGCAACGTGCTTCTCGGAGTCACCTAGTGCAG”, the binding signal was 3830 fluorescence intensity (a.u.). The value for “CTCAGATTCTCAGTGACAGACAGGATCAGCAAAACAAGCACGGAGTCACCTAGTGCAG” was 4340 fluorescence intensity (a.u.); that for “TCCTCCCATCTCTCTCTCTTTTGCCCACACTCTTTTCACACGGAGTCACCTAGTGCAG” was 5660 fluorescence intensity (a.u.); that for “CGTTGACATCGAGCACATCATCCAACTTCCATACCATCTGCGGAGTCACCTAGTGCAG” was 3240 fluorescence intensity (a.u.). For “GAAGTGGTTCTGCACTGTGATTTGAAGCCTAGCAACGTGCCGGAGTCACCTAGTGCAG”, the binding signal is 35800 fluorescence intensity (a.u.). On to “TGCCACGCCAAGTCGCCACCCTTTGGTGTTCGTCCCGTTGCGGAGTCACCTAGTGCAG”, for which the binding signal was 3230 fluorescence intensity (a.u.). “ATTTGCCAAACCACGTCCACCTGGCGCAGACACCACACCACGGAGTCACCTAGTGCAG”: the binding signal is 4890 fluorescence intensity (a.u.).

“CGGCCGGCTAGCTTCTGATCTGGCCACTGCCACGACGCCACGGAGTCACCTAGTGCAG”: the binding signal is 6320 fluorescence intensity (a.u.). The value for “AATAGTAGGCTATAAGCCGGCTAAATGCTGAGGTGGAGGACGGAGTCACCTAGTGCAG” was 5420 fluorescence intensity (a.u.); that for “AATGTCATGTCTTTGTCATCACAAGCATAACTTTCAACCGCGGAGTCACCTAGTGCAG” was 4570 fluorescence intensity (a.u.); that for “CCGGCAAGTGTCTTGTTGTGACTGGACTGGATATTGTGAACGGAGTCACCTAGTGCAG” was 6440 fluorescence intensity (a.u.).

Regarding “CTTTTATAATGTTTGTAAGACGTGGATCTGTATGTCAACTCGGAGTCACCTAGTGCAG”, the binding signal is 4380 fluorescence intensity (a.u.). The value for “TCGTCGTTAGTCCGTCCTCATCCGTGTGCCATTAACGGTGCGGAGTCACCTAGTGCAG” was 3160 fluorescence intensity (a.u.); that for “CCTCTCGAATCATAGATTCACTAAATAGAACATTCAAAATCGGAGTCACCTAGTGCAG” was 3400 fluorescence intensity (a.u.). The value for “ATAAAGTTTATCATAACTTTCACAAACTATACATATATCACGGAGTCACCTAGTGCAG” was 29800 fluorescence intensity (a.u.). As for “CCACCCATCTCTTTCCATACAACCACTCCCTGGCTCCCTGCGGAGTCACCTAGTGCAG”, the binding signal was 3140 fluorescence intensity (a.u.). To “AACACACAGTCGTGGCAAATCCTAATCTGCAATCTGCAAGCGGAGTCACCTAGTGCAG” belongs 4660 fluorescence intensity (a.u.); to “ACCGAAATTCAGTCATGCAGATGTGGATTCAGCCACATTTCGGAGTCACCTAGTGCAG”, 3920 fluorescence intensity (a.u.). For “CATTTCGGTAGCGTTGGCTTTGTTTAGTTTGATGTCTTTACGGAGTCACCTAGTGCAG”, the binding signal was 3330 fluorescence intensity (a.u.).

With “GGGGCCCACAGGCCCAACCCAACGCATCCGATTGAACGTTCGGAGTCACCTAGTGCAG”, the binding signal was 3440 fluorescence intensity (a.u.). The value for “GTAAACCGCACCGTGACGCGACGCGACCCCGAAGCCGTTCCGGAGTCACCTAGTGCAG” was 4790 fluorescence intensity (a.u.).

As to “CCTTAATGTTCAACGTGTCATGCATTAGTGAAATAATAGCCGGAGTCACCTAGTGCAG”, the binding signal was 3610 fluorescence intensity (a.u.). The value for “TGGCGACGGGATTCGTCGTCGTCGTCGCCATGTGTCAGCTCGGAGTCACCTAGTGCAG” was 5220 fluorescence intensity (a.u.); that for “GGGTCCAGCGCAGGAATCCCATTCGATTGATGACGTGGCGCGGAGTCACCTAGTGCAG” was 35700 fluorescence intensity (a.u.).

Turning to “GTACCTGTTTCAAGAACACAATGATGAGCTGTACCATCATCGGAGTCACCTAGTGCAG”, the binding signal is 3170 fluorescence intensity (a.u.). On to “GGGCCTACCCTTTATTGCATCACTCGACTCCAACTATAGTCGGAGTCACCTAGTGCAG”, for which the binding signal was 3980 fluorescence intensity (a.u.).

On to “ACCGAGTAAATTGTTTACTATCGACAGTTACACGTTACCACGGAGTCACCTAGTGCAG”, for which the binding signal is 3260 fluorescence intensity (a.u.). As for “CGTCCAAGCACGCCGCCGCCTCGTCGTCCTCGCTGGCGGACGGAGTCACCTAGTGCAG”, the binding signal is 3290 fluorescence intensity (a.u.). To “AGACGAACATCTTCCCCTATCGCCGCCGTGTCAATGTCACCGGAGTCACCTAGTGCAG” belongs 4370 fluorescence intensity (a.u.). Regarding “TCTAACGACAAGTTGTGATGACGGAGAGGGTGACAACAGCCGGAGTCACCTAGTGCAG”, the binding signal was 3820 fluorescence intensity (a.u.). Turning to “TCCTGCAACATCCTGATCTCCTCTAGAAGTAAGCAACTCGCGGAGTCACCTAGTGCAG”, the binding signal was 27700 fluorescence intensity (a.u.). As to “ATCAACAGAAGAGAGAAGCTCCTCAATGTTTCCTGCACCGCGGAGTCACCTAGTGCAG”, the binding signal is 15300 fluorescence intensity (a.u.). As to “AAATTTAGGGTTACATAGTGATCAATGAATGCGTCATGAACGGAGTCACCTAGTGCAG”, the binding signal was 4590 fluorescence intensity (a.u.). Turning to “ACCGGAGTCACTCAAACATGAATTCATTGGCAATCACATTCGGAGTCACCTAGTGCAG”, the binding signal was 3820 fluorescence intensity (a.u.). In the case of “ACCTACAGGCACGCGGCACGCCATGGCAAGTGCAATATTGCGGAGTCACCTAGTGCAG”, the binding signal is 3310 fluorescence intensity (a.u.).
